# In the supplement of paper PMC3334620:
# In all, about 33,000 sequences were measured (“E-score (-0.5 to 0.5)”: median about -0.015, highest 2% from about 0.3 on). Some of the results follow.
# Molecular target: T1, Abf1 (UniProt P14164)
# T1 sequence: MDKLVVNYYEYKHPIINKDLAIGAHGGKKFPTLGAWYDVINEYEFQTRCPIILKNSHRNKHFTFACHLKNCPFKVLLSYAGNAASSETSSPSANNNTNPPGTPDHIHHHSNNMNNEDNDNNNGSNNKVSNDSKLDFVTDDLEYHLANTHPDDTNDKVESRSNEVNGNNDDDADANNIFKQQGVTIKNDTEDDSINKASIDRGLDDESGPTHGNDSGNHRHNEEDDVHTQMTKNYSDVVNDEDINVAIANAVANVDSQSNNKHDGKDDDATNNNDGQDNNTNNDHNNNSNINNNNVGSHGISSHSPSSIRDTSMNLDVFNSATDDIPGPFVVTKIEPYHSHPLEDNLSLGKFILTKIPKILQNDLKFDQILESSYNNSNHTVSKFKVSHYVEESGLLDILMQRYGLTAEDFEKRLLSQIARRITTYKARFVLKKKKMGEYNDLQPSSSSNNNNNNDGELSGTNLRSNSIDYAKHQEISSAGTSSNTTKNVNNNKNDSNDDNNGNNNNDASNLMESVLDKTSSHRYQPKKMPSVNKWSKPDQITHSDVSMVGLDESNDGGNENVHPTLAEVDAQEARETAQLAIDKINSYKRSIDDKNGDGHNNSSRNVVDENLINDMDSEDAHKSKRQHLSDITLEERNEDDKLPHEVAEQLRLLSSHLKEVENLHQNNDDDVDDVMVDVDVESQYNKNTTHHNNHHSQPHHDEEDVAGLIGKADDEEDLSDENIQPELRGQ
# Test: PBM E-score (8-mer binding enrichment) (E-score (-0.5 to 0.5)); higher = stronger / more preferred TF binding
# Details: protein concentration: 200 nM; construct: GST-full length
# Method: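 Universal 'all 10-mer' protein binding microarrays (Agilent AMADID 015681) probed with GST-tagged S. cerevisiae TFs (full-length or DBD) made by in vitro transcription/translation (PURExpress), about 100-200 nM. Bound TF was detected with fluorescent anti-GST. Each ungapped 8-mer (which stands for itself and its reverse complement) is scored by the PBM enrichment score (E-score), a modified Wilcoxon-Mann-Whitney statistic from -0.5 to +0.5, computed with the Universal PBM Analysis Suite. Scale: above 0.35 generally sequence-specific binding.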
row,Sequence,PBM E-score
1,CTGGGATC,-0.0263
2,TACTCCGA,0.00533
3,CCACCGCG,-0.126
4,TACGTCGA,0.149
5,ACAAGGCT,-0.0608
6,CTAACATC,0.138
7,CCAGTGAG,-0.251
8,CCTGTCCA,-0.187
9,AATCGTCC,0.168
10,AGTTGGTG,-0.0584
11,CCTCATAA,-0.0174
12,ATGGATTA,-0.162
13,ACATGGCT,-0.217
14,ATCATTGC,0.176
15,CCACCGGA,-0.115
16,ACAACCAC,0.0845
17,GCGGCGAC,0.0353
18,TGATACCA,0.184
19,CTTCGGAC,0.176
20,AGACAAGC,-0.0992
21,ATCGCCCA,-0.077
22,CTGACGTC,0.137
23,AAACGCTC,-0.215
24,CGTAGCAC,0.246
25,AATTGGGT,0.086

row,Sequence,PBM E-score
1,GAGAGATC,0.0419
2,TCGATGCA,-0.119
3,AAATCGAC,0.118
4,TCCGTAAA,0.145
5,GTAGAGCA,-0.132
6,ACACGACA,0.368
7,AGCCGGCG,-0.0683
8,CTTCTCAC,0.0852
9,CGACCCAG,0.169
10,ACAACGAT,0.0575
11,CAGGCCGA,-0.189
12,CCCTCGGA,0.00175
13,CCTCGCAC,0.016
14,TCTGACCA,0.119
15,ACTCTGGG,-0.0955
16,AGCGCTCG,-0.197
17,GATATCAA,0.207
18,GAACTGCA,0.0142
19,GACTCCAA,-0.0985
20,TGTGGCAA,-0.0589
21,CATGGGAG,-0.204
22,CAAGACTA,-0.0636
23,ACACTGAA,-0.00951
24,GCGACAAA,0.215
25,ATCTCAAA,0.106

row,Sequence,PBM E-score
1,CAGACTTA,-0.0885
2,CCTGACCA,0.0226
3,GCTACAGA,-0.126
4,CGCGGTAG,0.0192
5,TCATACCA,-0.0589
6,ACAGGATA,0.0537
7,AGATTGAA,-0.0889
8,TCTCCGAA,-0.155
9,AACATACC,0.0753
10,ATACCTCC,-0.0585
11,ACGCTCCA,-0.0712
12,ACCTCCCC,-0.06
13,CCCGCCCG,-0.163
14,GCGGTAAA,0.0513
15,ATTGTCTA,0.164
16,ATCTGATA,-0.0399
17,GCAATCGC,-0.0773
18,CTAATTGA,-0.112
19,CCACAATA,-0.0124
20,AATGGCTC,-0.118
21,CGTAGGCA,-0.00183
22,ATAACAAC,0.00739
23,ATATTAAC,0.21
24,GCTCGTTA,-0.00823
25,CCTAACTC,0.0272

row,Sequence,PBM E-score
1,CAAACGTC,0.0472
2,GCATACCC,-0.136
3,CTCTGCCA,-0.0346
4,CTCGGACA,-0.0517
5,AGCATTAC,0.0251
6,GAAGGTGA,0.176
7,ACTACTGA,-0.0327
8,GGGATGAA,-0.0107
9,AAAACTTC,0.0216
10,AGTGCTTC,-0.176
11,ACTGCCGG,-0.112
12,AAAGTATC,0.119
13,ATAAACCA,0.0453
14,ATCGCCTC,0.095
15,CTCGGCCC,-0.185
16,ACTCACAG,-0.124
17,CTCCGATC,-0.191
18,AGGAATAG,-0.118
19,AATCTCCG,-0.0449
20,TGCCTGAA,-0.0551
21,GAGGCATA,-0.0641
22,CATTTCAA,0.163
23,GCTGGAAA,-0.186
24,AAACGATC,0.286
25,CGGCCTCC,-0.155

row,Sequence,PBM E-score
1,GAATAGGC,-0.149
2,AGCTGACC,-0.25
3,CGCGAACG,-0.0125
4,AAGGCCGA,-0.0803
5,ACCTACGC,0.0281
6,AGACGTAG,0.0529
7,ATGGACGC,0.0698
8,AGTAACAT,0.229
9,GGGATCCC,-0.211
10,CAGTCTCA,-0.102
11,ATGCCAGC,-0.175
12,AGCATGAT,0.18
13,GATCCTCA,0.019
14,AGGGCACA,-0.0676
15,ACCTAAGA,-0.0175
16,CCGATTTA,-0.0471
17,AGGAATAA,-0.0671
18,ACAAATCT,0.179
19,ATACCATG,0.181
20,ACCCTGCC,-0.0587
21,GGCTCGCA,0.015
22,GATGCGAA,0.038
23,ATGTATCC,0.11
24,GCACAATA,-0.128
25,ATTGGAAG,-0.0691

row,Sequence,PBM E-score
1,AGTAAGGG,-0.02
2,ATCTAGTG,0.0606
3,TGTCGAAA,-0.0585
4,CGACTTAA,0.0356
5,CGAACTGC,0.0272
6,AGAAACTG,0.0645
7,CTCCTGCC,-0.198
8,GGCAATAA,-0.0733
9,GGAAAGCA,-0.00322
10,CTGGTGAC,0.249
11,CAGATTGA,0.131
12,CAATAGTG,0.0351
13,GGTGGAGA,-0.231
14,CAAGACTG,-0.0899
15,GATCAAGC,0.00038
16,AGGGGTGG,-0.182
17,CGCCTGGC,-0.274
18,ACAAGACG,0.0792
19,CACACGTG,0.11
20,GAGCACCA,-0.0414
21,CCGCCAAG,-0.295
22,CATCCGTA,0.197
23,AATCTAAG,0.0341
24,TCTTGGCA,0.142
25,AGTTTAAT,-0.00834

# Part of the list above, bar-delimited.
row | Sequence | PBM E-score
8 | GGCAATAA | -0.0733
9 | GGAAAGCA | -0.00322
10 | CTGGTGAC | 0.249
11 | CAGATTGA | 0.131

# 3 records drawn at random from the list so far:
row,Sequence,PBM E-score
25,AATTGGGT,0.086
23,ACACTGAA,-0.00951
19,GACTCCAA,-0.0985

# More records follow:

row,Sequence,PBM E-score
1,CCTGAGCC,-0.313
2,ACATGGTC,-0.034
3,AAACCGCT,-0.0212
4,CCAACATC,-0.0685
5,CTACACCA,-0.157
6,ATTCACCA,-0.0382
7,CTTGTACA,0.0566
8,ACACGTCT,-0.0482
9,AAACGAGC,0.185
10,ACCAAGCC,-0.0773
11,AGTTGTGG,-0.12
12,AAGGCTAC,-0.103
13,CGTTCTGC,0.168
14,ACGTGTGG,0.0381
15,CTCGGCAC,-0.145
16,TAGCCGGA,-0.117
17,GGGCAAAC,-0.0564
18,CCCAGAAA,-0.197
19,GAAGAGTA,-0.0231
20,AACGACAG,0.196
21,GACGCCAA,-0.0398
22,AAATAGAG,-0.137
